Results deposited as PubChem BioAssay AID1259424 (University of Nebraska Medical Center, 2018)
Screen: 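Find knockdowns that reproduce the expression shifts seen after KSR1 loss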 (primary screen). System: human HCT116 colon cancer cells. Reagents: siRNA pool against human genes, 50 nM. Read-out: 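Log2 levels of six mRNAs (branched-DNA multiplex), adjusted by two reference genes and the non-targeting median, then scored against the average KSR1 knockdown pattern as Pearson r and euclidean distance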. Scale: mean correlation with KSR1 profile: higher = expression change more like KSR1 knockdown.
In all, the deposit lists about 14,000 reagents; below is a random part of them. 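Higher correlation or smaller distance means closer resemblance to KSR1 loss; control wells, including KSR1 knockdowns, recur on many plates.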 Some reagents were tested in more than one well and are listed for each. Not all columns of the deposit are shown. Not given: the time to read-out.

gene | mean correlation with KSR1 profile
ARFIP2 (GeneID 23647) | 0.0907
RPP30 (GeneID 10556) | 0.677
PRPF39 (GeneID 55015) | -0.575
CHKB (GeneID 1120) | -0.364
TSC2 (GeneID 7249) | -0.275
PDXP (GeneID 57026) | -0.0118
ANGPTL4 (GeneID 51129) | -0.173
QPCTL (GeneID 54814) | 0.387
ZNF678 (GeneID 339500) | 0.631
UBE2Z (GeneID 65264) | 0.269
NMNAT2 (GeneID 23057) | -0.389
FLYWCH1 (GeneID 84256) | 0.712
BDH1 (GeneID 622) | 0.352
LUZP1 (GeneID 7798) | -0.485
SYT17 (GeneID 51760) | -0.358
IDH3B (GeneID 3420) | -0.567
CORO1A (GeneID 11151) | 0.347
LRRC1 (GeneID 55227) | -0.626
PLPBP (GeneID 11212) | -0.455
ELMO1 (GeneID 9844) | -0.132
PIK3CB (GeneID 5291) | -0.269
PIK3CB (GeneID 5291) | 0.424
PLEKHA8P1 (GeneID 51054) | -0.849
TPO (GeneID 7173) | -0.158
OR2S2 (GeneID 56656) | 0.577
ATG12 (GeneID 9140) | 0.915
NEFL (GeneID 4747) | -0.303
MTR (GeneID 4548) | -0.285
CCR6 (GeneID 1235) | 0.42
SOCS6 (GeneID 9306) | -0.0159
LRP10 (GeneID 26020) | 0.18
PLA2G10 (GeneID 8399) | -0.121
RPL4 (GeneID 6124) | 0.18
TPSB2 (GeneID 64499) | 0.107
SLC26A3 (GeneID 1811) | -0.141
CBR3 (GeneID 874) | -0.636
GLRB (GeneID 2743) | -0.158
NUDT5 (GeneID 11164) | -0.961
LINC00308 (GeneID 54143) | 0.51
LIN7C (GeneID 55327) | -0.457
FTL (GeneID 2512) | -0.123
ENPP3 (GeneID 5169) | -0.683
ORAI1 (GeneID 84876) | 0.787
RBM6 (GeneID 10180) | 0.578
CNGA3 (GeneID 1261) | -0.167
ZNF529 (GeneID 57711) | -0.671
SACK1A (GeneID 84985) | 0.466
PAM16 (GeneID 51025) | -0.518
PLAAT3 (GeneID 11145) | -0.191
RNF139 (GeneID 11236) | -0.491
RAB9B (GeneID 51209) | 0.366
DMXL2 (GeneID 23312) | -0.921
RCVRN (GeneID 5957) | 0.193
DCK (GeneID 1633) | -0.346
MOV10L1 (GeneID 54456) | 0.0894
CHIA (GeneID 27159) | 0.836
GAMT (GeneID 2593) | 0.459
AMBN (GeneID 258) | -0.254
PSMD8 (GeneID 5714) | -0.288
SLC1A5 (GeneID 6510) | 0.317
SLC13A3 (GeneID 64849) | -0.447
GPM6B (GeneID 2824) | 0.424
MRPL12 (GeneID 6182) | -0.272

3 consecutive entries already listed, for reference:
gene | mean correlation with KSR1 profile
MOV10L1 (GeneID 54456) | 0.0894
CHIA (GeneID 27159) | 0.836
GAMT (GeneID 2593) | 0.459
